From US20070196848A1, “DETECTION OF PHOSPHORYLATED eIF2-alpha AS A DIAGNOSTIC TEST FOR EFFICACY AND SENSITIVITY OF TRANSLATION INITIATION INHIBITORS IN THE TREATMENT OF CANCER AND OTHER PROLIFERATIVE DISEASES” (priority 2004, published 2007)
At least one compound was matched to its structure with a doubt left.

Key:
ER-calcium stores = assay: ER-targeted chameleon protein FRET for ER calcium; assay type: cell-based; conditions: stable cancer cell line with ER-targeted chameleon
p53^−/− mice = conditions: 2.5 grams/kilogram daily by gavage, p<0.005
From the text: p53 is the most commonly mutated gene in human cancers. The anti-cancer activity of EPA was investigated in p53^−/− mice, which develop a wide variety of spontaneous tumors with 100% penetrance and die from cancer within 50 weeks of age. Age and sex matched animals were randomly distributed to treatment (2.5 grams/kilogram EPA) or control (2.5 grams/kilogram corn oil) administered daily by gavage.

[1] = tested on: intracellular Ca^++ stores / SOC channels; assay: cytoplasmic Ca++ in FURA-2-loaded DU-145 cells; assay type: cell-based, human
cyclin D1 [2] = assay: cyclin D1 mRNA and protein in quiescent cells stimulated with bFGF; assay type: cell-based
BRCA1 = BRCA1 expression in MCF-7 breast cancer cells; assay type: cell-based, human; conditions: MCF-7 cells, dose-dependent
From the text: (§1) FIGS. 4A-4C depict dose-dependent up-regulation of BRCA1 in MCF-7 breast cancer cells by EPA (A) and CLT (B). Upper bands, BRCA1; lower bands, actin.
(§2) MCF-7 breast cancer cells, known to have very low levels of BRCA1 protein, were exposed to CLT and EPA. […] To confirm that up-regulation of BRCA1 was at the level of translation, the 5′ UTRs of either BRCA1 mRNAa or mRNAb were placed in front of the firefly luciferase reporter gene using in both cases renilla luciferase as an internal control. These constructs were transfected into MCF-7 breast cancer cells. […] Without intending to be bound by theory, these experiments indicate that the inhibitors of translation initiation that induce phosphorylation of eIF2α restrict the availability of the ternary complex to translationally up-regulate the tumor suppressor gene BRCA1, a critical player in many types of sporadic breast and ovarian cancers.

cyclin D1, cyclin E, Ras = assay: [35S]met-cys pulse, immunoprecipitation and Western blot in NIH 3T3 cells; assay type: cell-based; conditions: 30 μM
5′ UTR of ATF-4 = assay: dual luciferase reporter with 5′ UTR of ATF-4; assay type: cell-based, human
[3] = tested on: KLN-205 mouse squamous cell carcinoma; assay: syngenic orthotopic KLN-205 squamous cell carcinoma model, tumor growth; assay type: in vivo; conditions: DBA mice, gavage 2.5 grams/kilogram, vs corn oil
[4] = tested on: eIF2α phosphorylation, BiP, cyclin D1 in KLN tumors; assay: immunostaining of KLN tumors; assay type: in vivo, mouse; conditions: gavage 2.5 grams/kilogram
5′ UTR of BRCA1 mRNA = assay: firefly luciferase reporter with 5′ UTR of BRCA1 mRNAa or mRNAb in MCF-7 cells; assay type: cell-based, human; conditions: renilla luciferase internal control
From the text: as §1, §2

CHOP and BiP = assay: Western blot of BiP and CHOP in DU-145 cells; assay type: cell-based, human; conditions: prostate cancer cells (DU-145)
PERK = assay: immunoblot for phosphorylated (active) PERK in DU-145 cells; assay type: cell-based, human; conditions: two hours
[5] = tested on: human prostate cancer cells; assay: polysome profile by sucrose density gradient centrifugation; assay type: cell-based
cyclin D1 [6] = assay: cyclin D1 Western blot in DU-145 cells; assay type: cell-based, human; conditions: DU-145 cells in culture
eIF2α phosphorylation = assay: immunostaining of liposarcoma pre-treatment biopsies vs post-treatment surgical specimens; assay type: in vivo, human; conditions: liposarcoma patients, oral administration

## CC/C=C\C/C=C\C/C=C\C/C=C\C/C=C\CCCC(=O)O [EPA, eicosapentaenoic acid]
ER-calcium stores
  ER-calcium stores: depletion of the ER-calcium stores
p53^−/− mice
  life expectancy: doubled the life expectancy
[1]; DU-145, absence of external Ca++
  cytoplasmic Ca++ concentration [Ca++]i: induced an increase in [Ca^++]i
[1]; TG-treated DU-145 cells
  intracellular Ca++ in TG-treated cells (SOC channels): rapidly brought the intracellular Ca^++ towards its basal level in a dose dependent manner
Cyclin D1 [2]
  cyclin D1 mRNA: full expression of cyclin D1 mRNA
  synthesis of cyclin D1 protein: reduced synthesis of cyclin D1 protein
BRCA1
  up-regulation of BRCA1: significant up-regulation of BRCA1
Cyclin D1, cyclin E, Ras
  synthesis and expression of oncogenes vs housekeeping proteins: preferential effect of EPA on the synthesis and expression of oncogenes (cyclin D1, cyclin E and Ras) with minimal effect on housekeeping proteins
5′ UTR of ATF-4; DU-145 transiently transfected
  L/R ratio (firefly/renilla luciferase): several-fold increase in the L/R ratios
5′ UTR of ATF-4; stably transfected cancer cells
  expression of reporter gene firefly luciferase (L): several-fold increase in the expression of the reporter gene firefly luciferase
[3]
  tumor growth: significantly reduced tumor growth
[4]
  BiP expression in KLN tumors: BiP expression
  cyclin D1 expression in KLN tumors: down-regulation of cyclin D1 expression
  eIF2α phosphorylation in KLN tumors: induced eIF2α phosphorylation
5′ UTR of BRCA1 mRNA
  translation of reporter fused to 5′ UTR of BRCA1 mRNAb: significantly up-regulated translation
CHOP and BiP
  expression of CHOP and BiP: induces the expression of CHOP and BiP
PERK
  activating phosphorylation of PERK: induces activating phosphorylation of PERK
[5]
  shift of polysome profile: significantly shifts the polysome profile from heavy (H) to lighter polysomes (L) and monosomes
Cyclin D1 [6]
  expression of cyclin D1: significant reduction in the expression of cyclin D1

## Cc1c(C)c2c(c(C)c1O)CCC(C)(COc1ccc(CC3SC(=O)NC3=O)cc1)O2 (stereo not drawn) [TRO, troglitazone]
eIF2α phosphorylation
  BiP expression, post-treatment vs pre-treatment biopsy: increase in BiP expression
  phosphorylation of eIF2α, post-treatment vs pre-treatment biopsy: significant phosphorylation of eIF2α
